# PubChem BioAssay AID445 (National Center for Advancing Translational Sciences (NCATS), 2006)
# Some of the results follow. These are further read-outs of the screen, such as a control signal, another cell line or another target. No call is given for them. The list favours compounds with an active or inconclusive main result. The note in brackets gives the kind of curve behind each potency; many fits are weak.
# Experiment: IkB Signaling
# Details: ABC-DLBCL IkBa-CBG/CBR dual luciferase ratio (green luciferase fused to IkBa over red control in OCI-Ly3 lymphoma cells), 4 h
# Method in brief: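 Curves were fitted separately to fusion (green), unfused (red) and ratio luminescence, then classed by r2, magnitude and activity. Cells: OCI-Ly3, 4 h compound plus doxycycline at 37C; 10 uM MG-132 defined full response.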
# [1] = measured here: control luc red channel unless noted
# [2] = measured here: IkB-luc green channel
# [3] = measured here: control luc red channel
smiles,measurement,setting,value
Cc1[nH]c2ccccc2c1C1(O)C(=O)N(Cc2ccccc2)c2ccc(Br)cc21 (centres undefined),AC50,[1],"39.8 µM [falling, single point]"
COc1ccccc1CNc1ncnc2onc(-c3ccc(Cl)cc3)c12,AC50,[1],"39.8 µM [falling, single point]"
Cc1nc2ccccc2c2oc(C(=O)NCc3ccc4c(c3)OCO4)cc12,AC50,[1],"3.98 µM [falling, full curve]"
CCCS(=O)(=O)NCCc1sc2nc(-c3ccc(Cl)cc3)nn2c1C,AC50,[1],"5.01 µM [rising, partial curve]"
O=C(c1ccco1)N1CCN(C(=O)C2CCCc3c2[nH]c2ccc(Cl)cc32)CC1 (centres undefined),AC50,[1],"31.6 µM [falling, single point]"
CCOC(=O)c1c(NC(=O)c2cc(=O)c3c(C)cc(C)cc3o2)sc(C)c1C,AC50,[1],"12.6 µM [falling, partial curve]"
COc1ccc(-n2nc3c(N4CCCC(C(=O)NCc5ccccc5C)C4)nnc(C)c3c2C)cc1 (centres undefined),AC50,[1],"12.6 µM [falling, partial curve]"
COc1ccccc1NC(=O)CC1C(=O)Nc2c1c(=O)n(C)c(=O)n2C (centres undefined),AC50,[1],"10 µM [falling, partial curve]"
CCOc1ccc(NC(=O)C(C)SC(N)=O)cc1 (centres undefined),AC50,[2],"7.94 µM [rising, full curve]"
same,AC50,[3],"5.01 µM [rising, full curve, poor fit]"
Cc1ccc(-n2ncc(C(=O)NCCN3CCc4ccccc4C3)c2C2CCN(C(=O)OC(C)(C)C)CC2)c(C)c1,AC50,[1],"31.6 µM [falling, single point]"
Cc1oc(-c2ccc(Cl)cc2)nc1CN1CCCC(C(=O)NCc2cccnc2)C1 (centres undefined),AC50,[1],"10 µM [falling, partial curve]"
Cc1ccc2nc(-c3ccc(N4CCOCC4)cc3)c(Nc3ccccc3C)n2c1,AC50,[1],"39.8 µM [falling, single point]"
COc1ccc(-n2c(COc3cccc(C)c3)nnc2SCC(=O)NCc2ccco2)cc1,AC50,[1],"15.8 µM [falling, partial curve]"
O=S1(=O)C=C(Sc2nc3cc(Cl)ccc3o2)c2ccccc21,AC50,[2],"3.16 µM [rising, partial curve]"
same,AC50,[3],"3.98 µM [falling, partial curve]"
Cc1cccc(C(=O)NCc2nnc(SCC(=O)Nc3ccccc3F)n2-c2ccccc2)c1,AC50,[1],"20 µM [falling, single point]"
COc1ccc(Cl)cc1C(=O)NCC(c1ccco1)N1CCCC1 (centres undefined),AC50,[1],"6.31 µM [falling, partial curve]"
CC(=O)N1c2ccc(S(=O)(=O)NCC3CCC(C(=O)Nc4cccc(F)c4)CC3)cc2CC1C (centres undefined),AC50,[1],"15.8 µM [falling, partial curve]"

# A second format for some results above:
smiles	measurement	setting	value
O=C(c1ccco1)N1CCN(C(=O)C2CCCc3c2[nH]c2ccc(Cl)cc32)CC1 (centres undefined)	AC50	[1]	31.6 µM [falling, single point]
Cc1ccc2nc(-c3ccc(N4CCOCC4)cc3)c(Nc3ccccc3C)n2c1	AC50	[1]	39.8 µM [falling, single point]
COc1ccc(-n2c(COc3cccc(C)c3)nnc2SCC(=O)NCc2ccco2)cc1	AC50	[1]	15.8 µM [falling, partial curve]
